These results are taken from PMC3254608, “Inscuteable Regulates the Pins-Mud Spindle Orientation Pathway” (PLoS ONE, 2012).

Amino acid sequences for entries named in this document (tags omitted). A change or cut given only in a name is not applied to a line headed by its entry.
UniProt P31007: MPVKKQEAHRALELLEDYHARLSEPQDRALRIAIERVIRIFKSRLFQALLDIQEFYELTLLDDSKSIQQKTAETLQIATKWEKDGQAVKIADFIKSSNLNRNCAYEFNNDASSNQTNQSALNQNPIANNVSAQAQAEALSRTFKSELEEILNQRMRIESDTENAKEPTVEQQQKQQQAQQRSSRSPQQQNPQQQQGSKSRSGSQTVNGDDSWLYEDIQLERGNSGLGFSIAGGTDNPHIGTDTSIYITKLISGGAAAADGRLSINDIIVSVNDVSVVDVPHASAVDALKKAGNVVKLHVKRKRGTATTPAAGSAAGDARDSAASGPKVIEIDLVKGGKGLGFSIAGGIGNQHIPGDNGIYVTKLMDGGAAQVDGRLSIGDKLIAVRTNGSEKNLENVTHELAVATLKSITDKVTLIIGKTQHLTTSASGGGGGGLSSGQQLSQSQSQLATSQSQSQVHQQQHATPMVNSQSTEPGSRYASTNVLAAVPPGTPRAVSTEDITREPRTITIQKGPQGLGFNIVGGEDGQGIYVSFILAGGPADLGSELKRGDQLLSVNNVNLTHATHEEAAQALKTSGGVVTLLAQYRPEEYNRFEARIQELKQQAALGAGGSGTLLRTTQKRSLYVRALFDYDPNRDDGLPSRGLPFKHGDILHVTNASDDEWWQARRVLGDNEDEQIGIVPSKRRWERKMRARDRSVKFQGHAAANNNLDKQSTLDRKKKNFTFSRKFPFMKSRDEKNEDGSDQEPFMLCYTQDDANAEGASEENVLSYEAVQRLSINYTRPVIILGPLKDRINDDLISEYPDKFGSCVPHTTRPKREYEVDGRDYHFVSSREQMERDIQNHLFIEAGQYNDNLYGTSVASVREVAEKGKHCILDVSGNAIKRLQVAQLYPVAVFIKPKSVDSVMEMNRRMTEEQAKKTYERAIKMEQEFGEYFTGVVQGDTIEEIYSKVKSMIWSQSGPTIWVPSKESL

Results are given in words; binding and its absence hold for the method and conditions named. For part of these data: Binding can be weak; no strength is given. For part of these data: Tags and fused reporters may be left off the sequences shown. For part of these data: In cells and extracts the contact can be indirect.

Experiment [1] has as its target T1, GST-fusion of the Pins TPR region (residues 42-398) (Drosophila) (UniProt Q9VB22).
T1 sequence: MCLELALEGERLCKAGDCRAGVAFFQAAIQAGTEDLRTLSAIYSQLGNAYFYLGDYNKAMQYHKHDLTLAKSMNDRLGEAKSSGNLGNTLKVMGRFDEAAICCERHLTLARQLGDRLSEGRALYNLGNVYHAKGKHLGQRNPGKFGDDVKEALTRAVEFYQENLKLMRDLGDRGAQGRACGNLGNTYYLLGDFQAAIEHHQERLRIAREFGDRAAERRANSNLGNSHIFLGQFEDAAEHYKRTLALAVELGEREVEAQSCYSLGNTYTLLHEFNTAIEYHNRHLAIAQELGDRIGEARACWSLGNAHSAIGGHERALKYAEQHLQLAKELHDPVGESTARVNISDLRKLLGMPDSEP
Description: pull-down; competition: GST-Pins TPRs on glutathione agarose, constant amount of Mud fragment, increasing MBP-Insc; 10 mM Hepes/100 mM NaCl/1 mM DTT, room temperature, 15 min; both purified.

Experiment [2] concerns the target T2, Inscuteable (Insc), endogenous (Drosophila (endogenous in L3 larval brains)) (UniProt Q24367).
T2 sequence: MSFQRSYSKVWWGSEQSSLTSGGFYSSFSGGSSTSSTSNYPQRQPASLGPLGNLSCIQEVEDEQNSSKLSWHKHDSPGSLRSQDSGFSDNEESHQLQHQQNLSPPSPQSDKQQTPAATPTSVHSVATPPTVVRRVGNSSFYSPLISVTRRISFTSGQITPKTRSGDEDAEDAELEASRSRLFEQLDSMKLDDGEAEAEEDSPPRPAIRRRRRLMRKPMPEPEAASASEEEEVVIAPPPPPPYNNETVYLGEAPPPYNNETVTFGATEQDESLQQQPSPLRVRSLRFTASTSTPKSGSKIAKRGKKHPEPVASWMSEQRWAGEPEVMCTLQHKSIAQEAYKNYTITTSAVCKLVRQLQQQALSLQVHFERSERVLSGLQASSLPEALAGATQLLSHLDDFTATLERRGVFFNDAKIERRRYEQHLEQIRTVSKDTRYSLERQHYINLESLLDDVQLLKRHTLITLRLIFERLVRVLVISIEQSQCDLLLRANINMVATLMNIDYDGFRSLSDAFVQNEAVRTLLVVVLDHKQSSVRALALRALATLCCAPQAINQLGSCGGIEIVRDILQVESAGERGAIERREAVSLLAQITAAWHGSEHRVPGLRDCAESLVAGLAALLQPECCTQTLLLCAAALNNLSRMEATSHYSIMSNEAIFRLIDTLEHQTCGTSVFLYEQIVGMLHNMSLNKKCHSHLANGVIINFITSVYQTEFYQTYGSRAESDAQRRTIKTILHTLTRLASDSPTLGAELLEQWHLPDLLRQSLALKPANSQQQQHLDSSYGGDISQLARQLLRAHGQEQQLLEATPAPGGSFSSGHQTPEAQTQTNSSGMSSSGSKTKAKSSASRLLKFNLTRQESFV
Description: co-IP; endogenous proteins from wild-type L3 larval brain extracts; antibodies on protein G sepharose; 50 mM HEPES pH 7.5/150 mM NaCl/1 mM DTT/0.1% Triton X-100; western blot. Background: A western blot detects proteins with antibodies after separation by electrophoresis.

Experiment [3] addresses T3, Partner of Inscuteable (Pins), endogenous (Drosophila (endogenous in L3 larval brains)) (UniProt Q9VB22).
T3 sequence: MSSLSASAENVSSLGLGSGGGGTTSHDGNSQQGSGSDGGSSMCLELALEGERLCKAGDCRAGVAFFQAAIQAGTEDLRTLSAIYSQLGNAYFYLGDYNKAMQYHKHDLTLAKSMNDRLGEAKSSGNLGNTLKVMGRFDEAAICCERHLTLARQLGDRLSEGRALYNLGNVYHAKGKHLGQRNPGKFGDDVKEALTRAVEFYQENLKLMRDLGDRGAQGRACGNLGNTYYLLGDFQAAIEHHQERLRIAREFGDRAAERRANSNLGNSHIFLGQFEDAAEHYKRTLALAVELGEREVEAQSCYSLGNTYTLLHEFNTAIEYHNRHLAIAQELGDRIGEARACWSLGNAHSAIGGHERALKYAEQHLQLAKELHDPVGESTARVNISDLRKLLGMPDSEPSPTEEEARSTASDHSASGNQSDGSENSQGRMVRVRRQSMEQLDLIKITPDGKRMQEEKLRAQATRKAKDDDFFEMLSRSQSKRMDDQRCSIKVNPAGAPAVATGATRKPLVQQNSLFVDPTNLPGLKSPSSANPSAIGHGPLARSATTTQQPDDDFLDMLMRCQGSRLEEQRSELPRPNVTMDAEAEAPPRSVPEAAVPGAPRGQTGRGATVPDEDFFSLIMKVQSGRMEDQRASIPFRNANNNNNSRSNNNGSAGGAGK
Described as above.

Experiment [4] deals with GST-Mud (residues 1825-2016) (Drosophila). The experiment is described as follows: pull-down; competition: GST-Mud on glutathione agarose, constant 2 uM Pins TPR, increasing MBP-Insc; 10 mM Hepes/100 mM NaCl/1 mM DTT, room temperature, 15 min; both purified.
Experiment [5] concerns the target Mushroom body defect (Mud), endogenous (Drosophila (endogenous in L3 larval brains)). The experiment is described as follows: co-IP; endogenous proteins from wild-type L3 larval brain extracts; antibodies on protein G sepharose; 50 mM HEPES pH 7.5/150 mM NaCl/1 mM DTT/0.1% Triton X-100; western blot.
The target of experiment [6] is Dlg GK domain (Drosophila) (UniProt P31007). The experiment is described as follows: pull-down; GST pull-down with Pins 1-466 (alone or pre-formed with MBP-Insc) treated in vitro with Aurora-A (30 min, room temperature), then added to the pull-down resin; Dlg GK domain; both purified.

In the case of “purified Mud fragment containing the minimal TPR binding domain (residues 1825-2016) (Drosophila) (domain or fragment)”, the binding entry in experiment [1] was “binds”.
With Mushroom body defect (Mud), endogenous, the binding entry is “no binding” in experiment [2] and “binds” in experiment [3].

B1: Pins TPR (residues 42-398), soluble (domain or fragment, UniProt Q9VB22 42-398)
chain: MCLELALEGERLCKAGDCRAGVAFFQAAIQAGTEDLRTLSAIYSQLGNAYFYLGDYNKAMQYHKHDLTLAKSMNDRLGEAKSSGNLGNTLKVMGRFDEAAICCERHLTLARQLGDRLSEGRALYNLGNVYHAKGKHLGQRNPGKFGDDVKEALTRAVEFYQENLKLMRDLGDRGAQGRACGNLGNTYYLLGDFQAAIEHHQERLRIAREFGDRAAERRANSNLGNSHIFLGQFEDAAEHYKRTLALAVELGEREVEAQSCYSLGNTYTLLHEFNTAIEYHNRHLAIAQELGDRIGEARACWSLGNAHSAIGGHERALKYAEQHLQLAKELHDPVGESTARVNISDLRKLLGMPDSEP
For B1, the binding entry in experiment [4] was “binds”.

B2: Inscuteable (Insc), endogenous (protein, UniProt Q24367 1-859)
chain: MSFQRSYSKVWWGSEQSSLTSGGFYSSFSGGSSTSSTSNYPQRQPASLGPLGNLSCIQEVEDEQNSSKLSWHKHDSPGSLRSQDSGFSDNEESHQLQHQQNLSPPSPQSDKQQTPAATPTSVHSVATPPTVVRRVGNSSFYSPLISVTRRISFTSGQITPKTRSGDEDAEDAELEASRSRLFEQLDSMKLDDGEAEAEEDSPPRPAIRRRRRLMRKPMPEPEAASASEEEEVVIAPPPPPPYNNETVYLGEAPPPYNNETVTFGATEQDESLQQQPSPLRVRSLRFTASTSTPKSGSKIAKRGKKHPEPVASWMSEQRWAGEPEVMCTLQHKSIAQEAYKNYTITTSAVCKLVRQLQQQALSLQVHFERSERVLSGLQASSLPEALAGATQLLSHLDDFTATLERRGVFFNDAKIERRRYEQHLEQIRTVSKDTRYSLERQHYINLESLLDDVQLLKRHTLITLRLIFERLVRVLVISIEQSQCDLLLRANINMVATLMNIDYDGFRSLSDAFVQNEAVRTLLVVVLDHKQSSVRALALRALATLCCAPQAINQLGSCGGIEIVRDILQVESAGERGAIERREAVSLLAQITAAWHGSEHRVPGLRDCAESLVAGLAALLQPECCTQTLLLCAAALNNLSRMEATSHYSIMSNEAIFRLIDTLEHQTCGTSVFLYEQIVGMLHNMSLNKKCHSHLANGVIINFITSVYQTEFYQTYGSRAESDAQRRTIKTILHTLTRLASDSPTLGAELLEQWHLPDLLRQSLALKPANSQQQQHLDSSYGGDISQLARQLLRAHGQEQQLLEATPAPGGSFSSGHQTPEAQTQTNSSGMSSSGSKTKAKSSASRLLKFNLTRQESFV
As for B2, the binding result in experiment [5] is “no binding”.

B3: in vitro Aurora-A phosphorylated Pins 1-466 (TPR+LINKER) (domain or fragment, UniProt Q9VB22 1-466)
chain: MSSLSASAENVSSLGLGSGGGGTTSHDGNSQQGSGSDGGSSMCLELALEGERLCKAGDCRAGVAFFQAAIQAGTEDLRTLSAIYSQLGNAYFYLGDYNKAMQYHKHDLTLAKSMNDRLGEAKSSGNLGNTLKVMGRFDEAAICCERHLTLARQLGDRLSEGRALYNLGNVYHAKGKHLGQRNPGKFGDDVKEALTRAVEFYQENLKLMRDLGDRGAQGRACGNLGNTYYLLGDFQAAIEHHQERLRIAREFGDRAAERRANSNLGNSHIFLGQFEDAAEHYKRTLALAVELGEREVEAQSCYSLGNTYTLLHEFNTAIEYHNRHLAIAQELGDRIGEARACWSLGNAHSAIGGHERALKYAEQHLQLAKELHDPVGESTARVNISDLRKLLGMPDSEPSPTEEEARSTASDHSASGNQSDGSENSQGRMVRVRRQSMEQLDLIKITPDGKRMQEEKLRAQATRKAK
modifications: phosphorylated by Aurora-A in the Linker domain (residue not given)
As to B3, the binding result in experiment [6] was “binds”.
